No constants are given. Whether binding was seen depends on the method and setting. Where a sequence is shown, tags or fusion partners need not be part of it.

This assay concerns the target lysozyme. In words: ELISA, 200 nM Trx-miniprotein on coated protein (1 µg/well), duplicates.

B1: Trx-MC-FN-010 (thioredoxin fusion of cystine-knot miniprotein MC-FN-010) (designed binder, not shown: large carriers; small tags and cut ends)
chain: PMCTQRKNRIRLCRRDSDCTGACICRGNGYCG
In the case of B1, the binding entry was “no binding (tested: 200 nM)”.

(Values after US20210246191A1 (BIONTECH, published 2021).)
